This note sets out measurements from paper PMC5640428.

For the experiment, the target named is T1, native KCC2 (K+-Cl- cotransporter KCC2) (mouse (endogenous in brain)) (UniProt Q91V14).
T1 sequence: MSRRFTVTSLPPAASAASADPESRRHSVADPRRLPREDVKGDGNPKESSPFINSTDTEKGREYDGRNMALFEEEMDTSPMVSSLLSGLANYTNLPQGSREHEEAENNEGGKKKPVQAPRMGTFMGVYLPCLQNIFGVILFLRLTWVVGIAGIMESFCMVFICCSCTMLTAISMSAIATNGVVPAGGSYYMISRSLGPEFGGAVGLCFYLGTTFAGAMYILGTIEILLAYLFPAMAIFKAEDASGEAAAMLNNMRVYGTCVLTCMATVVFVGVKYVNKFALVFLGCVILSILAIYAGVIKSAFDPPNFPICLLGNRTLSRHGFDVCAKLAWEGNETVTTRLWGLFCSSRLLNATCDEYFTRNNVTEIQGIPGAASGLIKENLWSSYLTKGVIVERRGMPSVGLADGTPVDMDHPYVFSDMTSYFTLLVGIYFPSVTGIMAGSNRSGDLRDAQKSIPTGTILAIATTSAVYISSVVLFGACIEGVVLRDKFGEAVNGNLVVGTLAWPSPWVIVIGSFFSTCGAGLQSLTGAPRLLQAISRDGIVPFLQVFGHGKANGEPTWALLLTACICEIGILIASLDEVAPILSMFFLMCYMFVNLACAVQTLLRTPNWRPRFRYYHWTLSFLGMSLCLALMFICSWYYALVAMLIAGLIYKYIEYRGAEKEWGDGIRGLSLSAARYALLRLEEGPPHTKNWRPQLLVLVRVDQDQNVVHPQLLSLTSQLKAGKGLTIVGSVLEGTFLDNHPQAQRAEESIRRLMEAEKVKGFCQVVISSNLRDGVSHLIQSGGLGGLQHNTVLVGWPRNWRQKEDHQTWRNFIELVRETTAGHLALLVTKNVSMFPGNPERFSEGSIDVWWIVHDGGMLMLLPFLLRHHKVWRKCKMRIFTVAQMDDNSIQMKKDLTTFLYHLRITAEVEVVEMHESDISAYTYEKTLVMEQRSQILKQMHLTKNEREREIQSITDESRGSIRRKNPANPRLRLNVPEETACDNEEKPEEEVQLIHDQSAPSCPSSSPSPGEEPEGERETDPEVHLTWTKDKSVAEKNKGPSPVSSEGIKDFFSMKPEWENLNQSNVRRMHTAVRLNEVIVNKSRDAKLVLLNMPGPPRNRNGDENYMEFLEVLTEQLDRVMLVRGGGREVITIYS
Description: affinity purification with mass spectrometry; anti-KCC2 antibodies (C-terminal, N-terminal KCC2b, pS940) cross-linked with DMP to GammaBind IgG beads; C12E9-solubilised whole-brain membrane fractions of P5 and P50 mice; 4 hr, 4°C; parallel IgG/IgY controls.

No constants are given. Whether binding was seen depends on the method and setting. Binding seen in cells or lysates may run through a third protein. Here binding means that the protein was enriched with, or labelled near, the bait; the list need not be complete.

B1: SLC1A3 (protein, UniProt P56564 1-543)
chain: MTKSNGEEPRMGGRMERLQQGVRKRTLLAKKKVQSLTKEDVKSYLFRNAFVLLTVTAVIVGTILGFALRPYKMSYREVKYFSFPGELLMRMLQMLVLPLIISSLVTGMAALDSKASGKMGMRAVVYYMTTTIIAVVIGIIIVIIIHPGKGTKENMYREGKIVQVTAADAFLDLIRNMFPPNLVEACFKQFKTSYEKRSFKVPIQSNETLLGAVINNVSEAMETLTRIREEMVPVPGSVNGVNALGLVVFSMCFGFVIGNMKEQGQALREFFDSLNEAIMRLVAVIMWYAPLGILFLIAGKIVEMEDMGVIGGQLAMYTVTVIVGLLIHAVIVLPLLYFLVTRKNPWVFIGGLLQALITALGTSSSSATLPITFKCLEENNGVDKRITRFVLPVGATINMDGTALYEALAAIFIAQVNNFDLNFGQIITISITATAASIGAAGIPQAGLVTMVIVLTSVGLPTDDITLIIAVDWFLDRLRTTTNVLGDSLGAGIVEHLSRHELKNRDVEMGNSVIEENEMKKPYQLIAQDNEPEKPVADSETKM
Take B1: the binding entry is reported as “binds”.

B2: CAPRIN1 (protein, UniProt Q60865 1-707)
chain: MPSATSHSGSGSKSSGPPPPSGSSGSEAAAGAAAPASQHPATGTGAVQTEAMKQILGVIDKKLRNLEKKKGKLDDYQERMNKGERLNQDQLDAVSKYQEVTNNLEFAKELQRSFMALSQDIQKTIKKTARREQLMREEAEQKRLKTVLELQYVLDKLGDDDVRTDLKQGLSGVPILSEEELSLLDEFYKLVDPERDMSLRLNEQYEHASIHLWDLLEGKEKPVCGTTYKALKEIVERVFQSNYFDSTHNHQNGLCEEEEAASAPTVEDQVAEAEPEPAEEYTEQSEVESTEYVNRQFMAETQFSSGEKEQVDEWTVETVEVVNSLQQQPQAASPSVPEPHSLTPVAQSDPLVRRQRVQDLMAQMQGPYNFIQDSMLDFENQTLDPAIVSAQPMNPTQNMDMPQLVCPQVHSESRLAQSNQVPVQPEATQVPLVSSTSEGYTASQPLYQPSHATEQRPQKEPMDQIQATISLNTDQTTASSSLPAASQPQVFQAGTSKPLHSSGINVNAAPFQSMQTVFNMNAPVPPANEPETLKQQSQYQATYNQSFSSQPHQVEQTELQQDQLQTVVGTYHGSQDQPHQVPGNHQQPPQQNTGFPRSSQPYYNSRGVSRGGSRGARGLMNGYRGPANGFRGGYDGYRPSFSNTPNSGYSQSQFTAPRDYSGYQRDGYQQNFKRGSGQSGPRGAPRGRGGPPRPNRGMPQMNTQQVN
With B2, the binding entry is “binds”.

B3: RAP2B (protein, UniProt P61226 1-183)
chain: MREYKVVVLGSGGVGKSALTVQFVTGSFIEKYDPTIEDFYRKEIEVDSSPSVLEILDTAGTEQFASMRDLYIKNGQGFILVYSLVNQQSFQDIKPMRDQIIRVKRYERVPMILVGNKVDLEGEREVSYGEGKALAEEWSCPFMETSAKNKASVDELFAEIVRQMNYAAQPNGDEGCCSACVIL
Turning to B3, the binding entry is “binds”.

B4: NDUFA10 (protein, UniProt Q99LC3 36-355)
chain: LRYGLLAAILGDKTTKKLHEYSRVITVDGNICSGKNKLAKEIAQQLGMKHYPEAGIQYSSTTTGDGRPLDIEFSGSCSLEKFYDDPKSNDGNSYRLQSWLYASRLLQYADALEHLLSTGQGVVLERSIYSDFVFLEAMYNQGYIRKQCVDHYNEIKRLTLPEYLPPHAVIYIDVPVPEVQSRIQKKGDPHEMKVTSAYLQDIENAYKKTFLPKMSEMCEVLVYDSWEAEDPTKVVEDIEYLKYNKGPWLKQDDWTFHYLRMLVQDKTEVLNYTTIPVYLPEITIGAHQGSRIYNSFRELPGRKYAPGYNAEVGDKWIWLK
As for B4, the binding entry was “binds”.

B5: DLST (protein, UniProt Q9D2G2 69-454)
chain: NDVITVQTPAFAESVTEGDVRWEKAVGDAVAEDEVVCEIETDKTSVQVPSPANGIIEALLVPDGGKVEGGTPLFTLRKTGAAPAKAKPAETPAPAHKAEPAAPAAPPPPAAPVLTQMPPVPSPSQPPSSKPVSAIKPTAAPPLAEAGAAKGLRSEHREKMNRMRQRIAQRLKEAQNTCAMLTTFNEVDMSNIQEMRARHKDAFLKKHNLKLGFMSAFVKASAFALQEQPVVNAVIDDATKEVVYRDYIDISVAVATPRGLVVPVIRNVETMNYADIERTINELGEKARKNELAIEDMDGGTFTISNGGVFGSLFGTPIINPPQSAILGMHAIFDRPVAVGGKVEVRPMMYVALTYDHRLIDGREAVTFLRKIKAAVEDPRVLLLDL
Turning to B5, the binding entry is listed as “binds”.

B6: ATP5O (protein, UniProt Q9DB20 24-213)
chain: FAKLVRPPVQVYGIEGRYATALYSAASKEKKLDQVEKELLRVGQLLKDPKVSLAVLNPYIKRTVKVKSLNDITKREKFSPLTANLMNLLAENGRLGNTQGIISAFSTIMSVHRGEVPCTVTTASPLDDAVLSELKTVLKSFLSPNQILKLEIKTDPSIMGGMIVRIGEKYVDMSAKSKIQKLSKAMREML
B6: the binding result was “binds”.

B7: ACAT1 (protein, UniProt Q8QZT1 31-424)
chain: ASKPTLNEVVIVSAIRTPIGSFLGSLASQPATKLGTAAIQGAIEKAGIPKEEVKEVYMGNVIQGGEGQAPTRQATLGAGLPISTPCTTVNKVCASGMKAIMMASQSLMCGHQDVMVAGGMESMSNVPYVMSRGATPYGGVKLEDLIVKDGLTDVYNKIHMGNCAENTAKKMNISRQEQDTYALSSYTRSKEAWDAGKFASEITPITISVKGKPDVVVKEDEEYKRVDFSKVPKLKTVFQKENGTITAANASTLNDGAAALVLMTAEAAQRLNVKPLARIAAFADAAVDPIDFPLAPAYAVPKVLKYAGLKKEDIAMWEVNEAFSVVVLANIKMLEIDPQKVNIHGGAVSLGHPIGMSGARIVVHMAHALKPGEFGLASICNGGGGASALLIEKL
B7: the binding result is reported as “binds”.

B8: NEFM (protein, UniProt P08553 1-848)
chain: MSYTLDSLGNPSAYRRVTETRSSFSRVSGSPSSGFRSQSWSRGSPSTVSSSYKRSALAPRLAYSSAMLSSAESSLDFSQSSSLLNGGSGGDYKLSRSNEKEQLQGLNDRFAGYIEKVHYLEQQNKEIEAEIQALRQKQASHAQLGDAYDQEIRELRATLEMVNHEKAQVQLDSDHLEEDIHRLKERFEEEARLRDDTEAAIRALRKDIEESSMVKVELDKKVQSLQDEVAFLRSNHEEEVADLLAQIQASHITVERKDYLKTDISTALKEIRSQLECHSDQNMHQAEEWFKCRYAKLTEAAEQNKEAIRSAKEEIAEYRRQLQSKSIELESVRGTKESLERQLSDIEERHNHDLSSYQDTIQQLENELRGTKWEMARHLREYQDLLNVKMALDIEIAAYRKLLEGEETRFSTFSGSITGPLYTHRQPSVTISSKIQKTKVEAPKLKVQHKFVEEIIEETKVEDEKSEMEETLTAIAEELAASAKEEKEEAEEKEEEPEAEKSPVKSPEAKEEEEEGEKEEEEEGQEEEEEEDEGVKSDQAEEGGSEKEGSSEKDEGEQEEEEGETEAEGEGEEAEAKEEKKIEGKVEEVAVKEEIKVEKPEKAKSPMPKSPVEEVKPKPEAKAGKGEQKEEEKVEEEKKEVTKESPKEEKVEKKEEKPKDVADKKKAESPVKEKAVEEVITISKSVKVSLEKDTKEEKPQPQEKVKEKAEEEGGSEEEGSDRSPQESKKEDIAINGEVEGKEEEEQETQEKGSGREEEKGVVTNGLDVSPAEEKKGEDSSDDKVVVTKKVEKITSEGGDGATKYITKSVTVTQKVEEHEETFEEKLVSTKKVEKVTSHAIVKEVTQGD
For the molecule B8, the binding entry was “binds”.

B9: C1QA (protein, UniProt P98086 23-245)
chain: EDVCRAPNGKDGAPGNPGRPGRPGLKGERGEPGAAGIRTGIRGFKGDPGESGPPGKPGNVGLPGPSGPLGDSGPQGLKGVKGNPGNIRDQPRPAFSAIRQNPMTLGNVVIFDKVLTNQESPYQNHTGRFICAVPGFYYFNFQVISKWDLCLFIKSSSGGQPRDSLSFSNTNNKGLFQVLAGGTVLQLRRGDEVWIEKDPAKGRIYQGTEADSIFSGFLIFPSA
Turning to B9, the binding entry is recorded as “binds”.
